We go through 13 substances from patent US4647553 (dated 1987).

[ ]: non-standard residue; d: D form. The star is where a group is joined. pGlu = O=C1CC[C@@H](C(=O)O)N1; Boc = CC(C)(C)OC(=O)*

Data set [1] is described as follows: general procedure: Boc solid-phase peptide synthesis; carbodiimide or active ester. To be noted: whole synthesis.
Data set [2] can be described thus: general procedure: Boc solid-phase peptide synthesis; Boc-Pro-resin; carbodiimide or active ester. The following applies: whole synthesis, scale 1 mmole.
Data set [3] in a line: general procedure: Boc solid-phase peptide synthesis; benzhydrylamine resin.HCl; carbodiimide or active ester. The following applies: whole synthesis, scale 1 mmole.
Data set [4] is described as follows: general procedure: Boc solid-phase peptide synthesis; benzhydrylamine.HCl resin; carbodiimide or active ester. To be noted: whole synthesis.
Data set [5] is described as follows: solution-phase peptide synthesis; carbodiimide or active ester.
Setting [6] is: late stage modification step, TFA salt.

In turn, “Glp--His(DNP)--Trp--Ser(OBzl)--Tyr(OBzl)--Gly--Trp--Leu--Pro” had a crude yield in data set [1] of 59%. Besides, the isolated yield in data set [1] (run 1) turned out to be 41%; in data set [1] (run 2), 26%. The substance also had a crude mass in data set [2] of 710 mg.

As for “Glp--His(DNP)--Trp--Ser(OBzl)--Tyr--Gly--Trp--Gln--Pro--Gly”, in data set [1] (scale 1 mmole), the crude yield is 65%. The isolated yield worked out at 42% in data set [1] (run 1) and 31% in data set [1] (run 2). The crude mass in data set [3] is 0.8 g.

As for D--Phe^6, Gln^8 --GnRH, the values for the isolated yield in data set [1] (run 1) and in data set [1] (run 2) were 55% and 32%, respectively.

For the substance “Glp--His(Tos)--Trp--Ser(OBzl)--Tyr(OBzl)--Gly--Phe--Gln--Pro--Gly”, the crude yield in data set [1] came out at 82%. The isolated yield is recorded as 49% in data set [1] (run 1) and 38% in data set [1] (run 2). In data set [4] (scale 1 mmole), this substance had a crude mass of 980 mg.

Take Boc-[dF]LQP-NHEt: the step yield in data set [5] (coupling step) stood at 89%.

Take H--D--Phe--Leu--Gln--Pro--NHEt.TFA: the step yield in data set [5] (setting [6]) is reported as 68%.

Consider H--Gly--Trp--Gln--Pro--NHEt.TFA, for which the step yield in data set [5] (setting [6]) is reported as 76.6%.

On to [pGlu]HWSY[dF]LQP-NHEt, for which, in data set [5] (coupling step), the step yield is reported as 62%.

Turning to Boc-GWQP-NHEt, in data set [5] (coupling step), the step yield is given as 81%.

Take “Glp--His(Tos)--Trp--Ser(OBzl)--Tyr(OBzl)--Gly--Phe--Leu--Pro--Gly”: the crude yield in data set [1] is listed as 87%. Further, the isolated yield in data set [1] (run 1) is 62%; in data set [1] (run 2) it was 51%. In data set [4] (scale 0.5 mmole), this substance registered a crude mass of 510 mg.

[pGlu]HWSYGWQP-NHEt gave a step yield in data set [5] (coupling step) of 52%.

Glp--His--Trp--Ser--Tyr--N2 H3: the step yield in data set [5] (late stage modification step, calculated for the two steps) was 56.9%.

For [pGlu]HWSY-OMe, the step yield in data set [5] (coupling step) worked out at 100%.
